The results in this text go back to US20260258116A1.

These are yes or no findings as the source states them, for the method shown. Some entries that bind do so weakly or less than the wild type.

In this test the target is T1, Recombinant human HMGB1 (rHMGB1) (human), P09429.
T1 chain: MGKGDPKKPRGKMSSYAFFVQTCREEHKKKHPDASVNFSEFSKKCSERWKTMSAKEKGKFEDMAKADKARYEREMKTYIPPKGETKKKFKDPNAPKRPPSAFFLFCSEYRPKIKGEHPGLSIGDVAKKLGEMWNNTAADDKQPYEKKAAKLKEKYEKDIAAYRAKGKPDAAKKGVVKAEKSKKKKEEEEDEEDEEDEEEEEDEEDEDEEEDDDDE
As to the kind of experiment: Sulfo-SBED label transfer, immunoblot. The note with it: remark: other sources report otherwise.

B1: Recombinant human HMGB1 (rHMGB1), P09429 1-215 (protein)
chain: MGKGDPKKPRGKMSSYAFFVQTCREEHKKKHPDASVNFSEFSKKCSERWKTMSAKEKGKFEDMAKADKARYEREMKTYIPPKGETKKKFKDPNAPKRPPSAFFLFCSEYRPKIKGEHPGLSIGDVAKKLGEMWNNTAADDKQPYEKKAAKLKEKYEKDIAAYRAKGKPDAAKKGVVKAEKSKKKKEEEEDEEDEEDEEEEEDEEDEDEEEDDDDE
B1: the binding result was “binds”.
